The text below walks through data of PubChem BioAssay AID1117359 (Southern Research Institute, 2015).

Several values for one entry are separate records, joined by “and”; a condition that tells them apart may be missing. Equal values may be shown once. About 460 (31%) of roughly 1,500 compounds were called active.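 Rule for the calls: active = viability at or below 80% at any tested concentration, marking the compound as toxic; inactive = the rest.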 Only a part is listed here, and it is no random draw. Measured potencies and affinities stand elsewhere.

The nature of this assay: THP-1 cell cytotoxicity, dose response, cytotoxicity control for Vif-APOBEC3G degradation inhibitor project, THP-1 cells (AID 1117359). As to conditions: THP-1 viability, CellTiter-Glo luminescence, 72 h; at 40 µM (top of the series).
`COc1ccccc1-n1c(-c2cc(-c3ccco3)[nH]n2)n[nH]c1=S`: the viability is inactive: 106%.

Regarding `Cc1ccc2c(c1)c(CC(=O)Nc1ccc(C)c(F)c1)c(C(=O)O)n2C`, the viability was inactive: 92.8%.

For the compound `Nc1nc(SCc2nc3scc(-c4ccccc4)c3c(=O)[nH]2)n[nH]1`, the viability is inactive: 90.6%.

With `CC(=O)Oc1cccc(N2C(=O)CC(Nc3ccc(N4CCOCC4)cc3)C2=O)c1` (stereo unspecified), the viability is inactive: 104%.

In the case of `CCN(CC(=O)NCc1cccs1)C(=O)c1ccc([N+](=O)[O-])o1`, the viability was inactive: 99.9%.

As to `N#Cc1ccccc1CN1C(=O)S/C(=C/c2cccn2-c2cccc(C(=O)O)c2)C1=O`, the viability was inactive: 98.7%.

With `CCCn1c(=O)c(-c2ccccc2)c(O)c2ccccc21`, the viability was inactive: 103%.

Turning to `C[n+]1cccc2cccc([O-])c21`, the viability was inactive: 98.1%.

For the compound `O=c1cc(-c2ccc(O)c(O)c2)oc2cc(O)c(C3OC(CO)C(O)C(O)C3O)c(O)c12` (stereo unspecified), the viability is inactive: 103%.

In the case of `O=C1CC(Nc2ccc(N3CCOCC3)cc2)C(=O)N1C1CCCCC1` (stereo unspecified), the viability is inactive: 80.7%.

In the case of `NC(=O)/C(=C/c1ccco1)C(N)=S`, the viability is inactive: 94.8%.

With `CSc1ccc(/C=N/n2c(C3CCCCC3)n[nH]c2=S)cc1`, the viability is inactive: 83.4%.

With `COc1ccc2nc3ccccc3nc2c1N`, the viability is inactive: 95.1%.

On to `COc1ccc(NS(=O)(=O)c2cc(N=Nc3c(O)[nH]c(=O)[nH]c3=O)ccc2Cl)cc1`, for which the viability was inactive: 80.5%.

For the compound `CCOc1ccc2nc(Cl)c(C3CC(c4ccccc4)=NN3C(=O)c3cccs3)cc2c1` (stereo unspecified), the viability was inactive: 91.6%.

Regarding `CSc1ccccc1NC(=O)c1noc2c1CCC2`, the viability is inactive: 98.2%.

Take `Cn1c(CNC(=O)C2CCCCC2)cc2cc(Cl)ccc21`: the viability was inactive: 101%.

In the case of `O=C(O)C1=NN(c2cc(Cl)c(S(=O)(=O)O)cc2Cl)C(=O)C1`, the viability was inactive: 89.4%.

On to `O=C(NN1C(=O)/C(=C/C=C/c2ccco2)SC1=S)c1ccncc1`, for which the viability was inactive: 102%.

In the case of `COCCn1c(SCC(=O)Nc2cccc(C)n2)nnc1-c1ccco1`, the viability was inactive: 104%.

Consider `CCOc1ccccc1C(=S)NC1CCCCC1`, for which the viability is inactive: 101%.

On to `CCOC(CNC(=O)C(=O)Nc1cc2c3c(c1)CC(=O)N3CCC2)OCC`, for which the viability is inactive: 97.9%.

In the case of `O=C(CCCCCN1C(=O)c2ccccc2C1=O)Nc1nccs1`, the viability was inactive: 97.2%.

Take `CCCN(CC(=O)Nc1ccccc1C)C(=O)COC(=O)c1cnc(C)cn1`: the viability is inactive: 105%.

Consider `O=C(NCCO)Nc1ccc2nc(-c3ccco3)c(-c3ccco3)nc2c1`, for which the viability was inactive: 119%.

Turning to `O=C(NCCCO)c1ccc2nc(-c3ccco3)c(-c3ccco3)nc2c1`, the viability was inactive: 86.7%.

In the case of `CCN1C[C@@H]2[C@@H]3C(=O)N(Cc4ccccc4)C(=O)[C@@H]3[C@](C)(C(=O)OC)N2C1=NC1CCCCC1`, the viability is inactive: 99.2%.

On to `O=C1CC(c2ccco2)CC(O)=C1C=Nc1cc(Cl)ccc1Cl` (stereo unspecified), for which the viability is inactive: 86.1%.

For the compound `COc1ccc(NC(=O)CN(C)C(=O)c2cccc(-n3cccc3)c2)cc1`, the viability is inactive: 83.6%.

Regarding `CC(C)CCNC(=O)c1ccc2c(SCC(=O)O)c3c(nc2c1)CCC3`, the viability is inactive: 106%.

In the case of `O=C(COC(=O)c1cc(=O)[nH]c2ccccc12)Nc1cccc(S(=O)(=O)N2CCOCC2)c1`, the viability was inactive: 94.1%.

For the compound `CCOCCCNC(=O)C1CCN(S(=O)(=O)CC)CC1`, the viability is inactive: 111%.

As to `O=c1[nH]c(=S)[nH]c2c1C(c1ccc(Br)cc1)c1c([nH]c(=S)[nH]c1=O)O2`, the viability was inactive: 89.3%.

Regarding `Cc1cc([N+](=O)[O-])cc2c1NC(c1ccccn1)C1CC=CC21` (stereo unspecified), the viability was inactive: 109%.

On to `O=C(N/N=C/C=C/c1ccco1)c1ccncc1`, for which the viability was inactive: 99.2%.

With `COc1ccc(/C=N\NC(=O)c2cc(O)c(O)c(O)c2)cc1CN1CCN(c2ccc(F)cc2)CC1`, the viability was inactive: 100%.

For the compound `O=C(NCc1ccccn1)c1ccc2nc(-c3ccco3)c(-c3ccco3)nc2c1`, the viability was inactive: 87.2%.

Take `CC1CCC/C(=C\Nc2ccc(C(=O)O)c(O)c2)C1=O` (stereo unspecified): the viability was inactive: 107%.

`Nn1c(SCC(=O)NCCc2ccc(F)cc2)nnc1C1CCCCC1`: the viability is inactive: 92.2%.

For the compound `CC(C)(C)C1C/C(=C/c2ccco2)C(=O)/C(=C/c2ccco2)C1` (stereo unspecified), the viability was inactive: 86%.

Consider `COc1ccc2c3c(cccc13)N(C)N=C2C`, for which the viability was inactive: 87.9%.

On to `CC1CCN(Cc2c(O)ccc3c2O/C(=C\c2ccco2)C3=O)CC1`, for which the viability was inactive: 85.3%.

As to `Nc1cccc2c(O)cc(S(=O)(=O)O)cc12`, the viability is inactive: 110%.

Take `Cc1c(Cl)cccc1NS(=O)(=O)c1ccc2c(c1)C1C=CCC1C(c1ccc(C(=O)O)cc1)N2` (stereo unspecified): the viability is inactive: 110%.

`O=C1CCCC(O)=C1N=Nc1ccc(C(=O)O)cc1`: the viability is inactive: 111%.

Regarding `O=c1[nH][nH]c2c(N=Cc3ccccc3O)ccc(F)c12`, the viability was inactive: 109% and inactive: 84.9%.

Take `CCOc1ccc(N2CC(C(=O)NCC(=O)Nc3ccc(F)c(F)c3F)CC2=O)cc1` (stereo unspecified): the viability is inactive: 113%.

On to `Cc1c(C)c2ccc(O[C@@H]3O[C@H](CO)[C@H](O)[C@H](O)[C@H]3O)c(C)c2oc1=O`, for which the viability is inactive: 92.9%.

With `Cc1ccc(C)c(NC(=O)CN(C)C(=O)c2cccc(-n3cccc3)c2)c1`, the viability was inactive: 97.3%.

Consider `CCn1c(C)nc2cc(C(=O)NNC(=O)CCC3CCCCC3)ccc21`, for which the viability is inactive: 102%.

For `Cc1nn(Cc2ccccc2)c(C)c1/C=N/NC(=O)c1ccccc1O`, the viability is inactive: 96.5%.

For the compound `O=C(CCS(=O)(=O)c1ccc(Br)cc1)NCCc1ccccc1`, the viability is inactive: 97.9%.

For `CC1(C)N([O-])c2cc([N+](=O)[O-])ccc2[N+]1=O`, the viability was inactive: 93.5%.

Consider `O=C(O)CCCCC1SCC2NC(=O)NC21` (stereo unspecified), for which the viability was inactive: 118%.

For the compound `Cc1ccnc(NS(=O)(=O)c2ccc(NC(=O)Cc3cccs3)cc2)n1`, the viability was inactive: 109%.

In the case of `Cc1nc(-c2noc(-c3ccccc3Cl)n2)c(C(F)(F)F)o1`, the viability was inactive: 86.2%.
